The text below walks through data of article PMC2686683.

Amino acid sequences for entries named in this document (tags omitted). Residues count along the entry.
GST-N terminal (NH2) cortactin fragment, residues 1-333 (Q60598, residues 1-333): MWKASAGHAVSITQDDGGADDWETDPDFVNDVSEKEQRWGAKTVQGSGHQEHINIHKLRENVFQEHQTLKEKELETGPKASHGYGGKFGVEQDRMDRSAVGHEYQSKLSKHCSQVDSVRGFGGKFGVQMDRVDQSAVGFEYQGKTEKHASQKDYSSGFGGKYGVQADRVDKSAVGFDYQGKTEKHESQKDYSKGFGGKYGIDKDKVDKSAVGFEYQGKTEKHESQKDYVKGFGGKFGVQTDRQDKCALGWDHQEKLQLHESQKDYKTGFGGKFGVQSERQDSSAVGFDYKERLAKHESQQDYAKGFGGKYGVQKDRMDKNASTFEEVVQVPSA
GST-SH3 cortactin domain, residues 458-546 (Q60598, residues 458-546): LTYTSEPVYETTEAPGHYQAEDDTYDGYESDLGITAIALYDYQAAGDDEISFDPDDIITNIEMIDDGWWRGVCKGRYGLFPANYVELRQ
UniProt Q91YD9: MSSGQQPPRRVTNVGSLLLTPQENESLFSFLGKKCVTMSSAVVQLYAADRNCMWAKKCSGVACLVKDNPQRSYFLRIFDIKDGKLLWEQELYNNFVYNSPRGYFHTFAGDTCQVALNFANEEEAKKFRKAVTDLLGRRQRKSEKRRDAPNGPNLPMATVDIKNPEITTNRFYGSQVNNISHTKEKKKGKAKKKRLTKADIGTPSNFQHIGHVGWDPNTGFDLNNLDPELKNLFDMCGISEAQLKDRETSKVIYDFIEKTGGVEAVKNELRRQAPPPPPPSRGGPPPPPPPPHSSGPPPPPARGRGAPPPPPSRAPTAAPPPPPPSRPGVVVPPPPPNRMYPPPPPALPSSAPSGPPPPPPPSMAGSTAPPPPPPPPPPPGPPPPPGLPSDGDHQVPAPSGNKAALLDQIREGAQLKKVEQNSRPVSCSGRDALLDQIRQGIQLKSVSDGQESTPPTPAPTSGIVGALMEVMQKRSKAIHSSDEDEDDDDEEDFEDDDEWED
UniProt B7UM99: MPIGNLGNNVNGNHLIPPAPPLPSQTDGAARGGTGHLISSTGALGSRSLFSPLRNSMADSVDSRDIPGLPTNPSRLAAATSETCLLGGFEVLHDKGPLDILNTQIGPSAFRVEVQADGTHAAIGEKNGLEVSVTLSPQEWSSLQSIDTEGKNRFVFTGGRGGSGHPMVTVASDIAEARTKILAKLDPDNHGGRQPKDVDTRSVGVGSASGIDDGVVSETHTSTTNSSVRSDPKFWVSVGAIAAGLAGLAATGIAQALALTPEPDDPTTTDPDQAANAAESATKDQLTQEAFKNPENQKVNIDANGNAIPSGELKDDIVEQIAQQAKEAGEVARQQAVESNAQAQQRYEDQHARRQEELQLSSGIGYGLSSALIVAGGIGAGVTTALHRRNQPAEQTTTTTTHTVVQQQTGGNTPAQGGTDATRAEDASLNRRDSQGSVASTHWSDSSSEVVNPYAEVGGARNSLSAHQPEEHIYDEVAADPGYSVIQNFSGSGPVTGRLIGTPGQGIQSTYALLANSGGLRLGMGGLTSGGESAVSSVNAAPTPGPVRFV

The target in assay [1] is GST-SH3 cortactin domain, residues 458-546 (UniProt Q60598). The assay can be described thus: pull-down; GST fusion proteins with clarified total cell lysates of MEFs; blotted with anti-Tir, stripped and reprobed with anti-N-WASP antibody; data not shown; only the target purified.
Assay [2] deals with GST-N terminal (NH2) cortactin fragment, residues 1-333 (UniProt Q60598). Described as above.
For assay [3] the target is unchanged. As to the kind of experiment: pull-down; GST fusion proteins on GSH-beads with membrane-enriched pellets (resuspended in lysis buffer with 0.1% Triton-X100) of EPEC-infected (3 h) and uninfected WT, N-WASP-deficient and R MEFs; washed with lysis buffer diluted 1:10 in PBS 0.05% Tween 20; blotted with anti-Tir mAb; only the target purified.

These are yes or no findings as the source states them, for the method shown. Binding seen in cells or lysates may run through a third protein. Some binding calls cover weakened binding; strength is not graded here.

As to “N-WASP, endogenous in WT mouse embryonic fibroblasts (from UniProt Q91YD9 1-501)”, in assay [1], the binding entry is on record as “binds”.
Regarding “Tir delivered by EPEC into infected mouse embryonic fibroblasts (fully-modified, slower-moving band) (from UniProt B7UM99 1-550)”, the binding entry in assay [2] and in assay [3] was “binds” throughout.
